Laboratory results taken from article doi:10.1101/534545.
These are yes or no findings as the source states them, for the method shown. Binding seen in cells or lysates may run through a third protein. Some entries that bind do so weakly or less than the wild type. Tags and fused reporters may be left off the sequences shown.

The chains behind the UniProt entries cited, without tags or fusion partners. Where a name states a change or a piece, a line headed by the entry shows the natural chain unless it says otherwise.
UniProt Q38919: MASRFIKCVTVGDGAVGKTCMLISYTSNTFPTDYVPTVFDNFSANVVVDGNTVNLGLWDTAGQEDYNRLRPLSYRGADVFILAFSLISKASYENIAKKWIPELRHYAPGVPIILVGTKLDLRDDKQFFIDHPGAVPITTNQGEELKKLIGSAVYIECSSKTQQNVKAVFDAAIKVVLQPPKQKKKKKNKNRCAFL

target: T1, GEF3-cYFP (Arabidopsis thaliana) (UniProt A4IJ27); assay: split reporter
T1 sequence: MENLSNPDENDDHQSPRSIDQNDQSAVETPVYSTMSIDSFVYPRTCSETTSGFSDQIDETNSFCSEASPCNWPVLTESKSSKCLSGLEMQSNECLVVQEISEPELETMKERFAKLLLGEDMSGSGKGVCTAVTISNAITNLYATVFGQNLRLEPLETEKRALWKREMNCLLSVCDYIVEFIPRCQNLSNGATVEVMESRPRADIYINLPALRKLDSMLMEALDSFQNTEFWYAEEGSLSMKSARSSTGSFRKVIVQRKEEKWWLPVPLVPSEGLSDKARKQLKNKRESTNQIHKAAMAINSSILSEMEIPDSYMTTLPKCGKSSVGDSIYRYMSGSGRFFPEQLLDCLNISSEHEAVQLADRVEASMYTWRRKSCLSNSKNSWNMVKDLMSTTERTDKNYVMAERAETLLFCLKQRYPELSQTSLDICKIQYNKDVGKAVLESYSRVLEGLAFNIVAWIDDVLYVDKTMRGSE

binding	Substance
binds	nYFP-CA-ROP2 (G14V) (from UniProt Q38919 1-195)
binds	nYFP-DN-ROP2 (D120A) (from UniProt Q38919 1-195)
no binding	nYFP-rop2ΔN (Δ1-79) (from UniProt Q38919 80-195) (domain or fragment)
binds	nYFP-ROP2 (wild-type) (from UniProt Q38919 1-195)

target: T2, GEF3 bait/Cub fusion (Arabidopsis thaliana) (UniProt A4IJ27); assay: mating-based split-ubiquitin assay in yeast
T2 sequence: T1 sequence

binding	Substance
binds	ROP2 (wild-type) prey/Nub fusion (from UniProt Q38919 1-195)
no binding	rop2ΔN (Δ1-79) prey/Nub fusion (from UniProt Q38919 80-195) (domain or fragment)
binds	CA-ROP2 (G14V) prey/Nub fusion (from UniProt Q38919 1-195)
binds	DN-ROP2 (D120A) prey/Nub fusion (from UniProt Q38919 1-195)
